This note sets out measurements from paper PMC10163288.

By apparent Kd is commonly meant the concentration giving half-maximal binding under the conditions of the assay.

To fix the notation:
B1: il2ra_site1_3nfp_sap_15_mot_HHH_b2_08182_af2_000000158_0001_1_17_H_._26d2e3f6454d5080c908b55388c9dbdf_0001_af2_0001_0000100002_0000001_0_0001 (protein)
chain: NDARAVSKVVEEAAERFGIPSVEVTVENGKLHVEVEGNDDAARAIKWAAEAAAKIAKITVEVEHE
B2: il2ra_site2_2erj_sap_22_mot_HHH_b1_02968_000000142_0001_22_39_H_._HHH_b2_05170_0001_0000300027_0000001_0_0001 (protein)
chain: SSSSDEAEELLEEAKRLLEEGDPEQAFAVLARAALIALRAGDEELVREIRELAEEVFRAGSSSSS
B3: il2ra_site1_1z92_sap_12_mot_HHH_b1_07036_000000095_0001_39_53_H_._HHH_b2_03250_0001_0000100002_0000001_0_0001_af2pred_0001_af2pred (protein)
chain: SSSDEERLRRSLERLVELAVKEAGLSEEQKEELERLVEELIERGVDFHEAVRLILRLALELSSSS
B4: il2ra_site1_2b5i_sap_18_mot_HHH_b2_04997_af2_000000138_0001_1_34_H_._799e2d46ed21d3efa93e27a97ae18933_0001_1_af2_0001_0000100007_0000001_0_0001_af2pred_dldesign … (protein)
chain: SSSSSEVEKKVNELIEQARKEEDPEKREKILNEAYDLAEEAEDKNLIYKVVKERYLLENLSSSSS
B5: il2ra_site1_3nfp_normal_mot_66bb1f637706d7249e1dd387c51866da_0001_1_000000092_0001_54_65_H_._HHH_b2_01012_0001_0000100007_0000001_0_af2pred_0001_af2pred_1_swapp … (protein)
chain: SSSSSTEYLERLAERIEKAVDDREQAERLFKRFLEDAEKTGDERQLERLEELAREVLEKLSSSSS
B6: il2ra_site2_3nfp_sap_8_mot_HHH_b1_04622_000000276_0001_1_16_H_._HHH_b1_03679_af2_0001_0000200011_0000001_0_0001 (protein)
chain: SSSSSEELEELLREAEELLEEGDRFQATRVLAEAMELALRLNDREAVRKVLELFEHLRRLYSSSS
B7: il2ra_site2_2erj_normal_mot_HHH_b2_01275_af2_000000073_0001_23_39_H_._HHH_b2_00463_0001_0000300023_0000001_0 (protein)
chain: SSSSSDKEEVEEEVEEILRRAEETDDLREAYKLAVRALRLAAELGDPELQELVRRVVERLSSSSS
B8: il2ra_site2_3nfp_normal_mot_HHH_b1_00660_af2_000000090_0001_40_57_H_._HHH_b1_06769_0001_0000400011_0000001_0_af2pred_0001_af2pred (protein)
chain: SSSSSSEELEEEVEELLERAKHIDDPEEREELLHEASELAYELQNFQLFALVSLVIEKLRSSSSS
B9: il2ra_site2_3nfp_sap_25_mot_HHH_b1_00784_000000093_0001_41_55_H_._3aefc51b0440b32321f790e365bc563e_0001_1_0001_0000300021_0000001_0_0001_af2pred_0001_af2pred (protein)
chain: SSSSDEEEEAERLEKELRELEENNDEERLRRLAEEAAEFARQTNDEELFAIALEIRRKLDSSSSS
B10: il2ra_site2_2erj_sap_20_mot_HHH_b1_06165_000000050_0001_41_56_H_._HHH_b2_00716_0001_0000600018_0000001_0_0001 (protein)
chain: SSSSSELVQEALRIIKEAFERGLSEEEIKELLERLLEEARELGDEDEVAMIETLIEYLERLSSSS
B11: il2ra_site1_3nfp_normal_mot_HHH_b1_03753_af2_000000088_0001_41_54_H_._8822628e7dce7141ff94e8fdab707b8c_0001_1_0001_0000100001_0000001_0_af2pred_0001_af2pred_swa … (protein)
chain: SEEEEEAEELLKKSLPPRAVEALKFLAEAVKEGNPSAERKLRVDLKAARQLGDEAVVRAIELLLK
B12: il2ra_site1_3nfp_normal_mot_HHH_b1_03753_af2_000000088_0001_41_54_H_._HHH_b1_07059_af2_0001_0000600012_0000001_0_af2pred_0001_af2pred_swapped (protein)
chain: SSSSSEEREELQRLIEKAMELAFQGDHEEAERLLREAKRIAEELGNERLERRIEFDLKAISSSSS
B13: il2ra_site1_2b5i_sap_13_mot_HHH_b2_04131_000000150_0001_1_16_H_._HHH_b2_04520_af2_0001_0000200022_0000001_0_0001_af2pred_dldesign_0_af2pred (protein)
chain: SSSSSTSPEELVDELIERARKEEDPLLRRKILTLARRVARKANDPALVARVEAVEKELAASSSSS
B14: il2ra_site1_2b5i_sap_15_mot_HHH_b1_05017_af2_000000115_0001_1_18_H_._HHH_b2_00737_af2_0001_0000400026_0000001_1_0001_af2pred_dldesign_0_af2pred (protein)
chain: SSSSSSSSQRAKLEEAERILKELSPEEARAKLAELLAEARAAKDERTARALELALEEASSSSSSS
B15: il2ra_site1_1z92_normal_mot_HHH_b2_01902_af2_000000252_0001_25_40_H_._HHH_b1_08109_0001_0000100030_0000001_0 (protein)
chain: SSSSLEELKKLDRFIVELVEEFGLDDEQAQELLRVALRLQSEGLSPEEIEEILEEVAERLSSSSS
B16: il2ra_site1_2b5i_sap_13_mot_HHH_b2_07873_af2_000000005_0001_23_39_H_._468c40a63644cca753a3029f4a225358_0001_1_0001_0000600018_0000001_0_0001 (protein)
chain: SSSSDSREAQELFHQADEADRNGDPERARELLEEALEIAEEAGSPNLFRMIEAALRQARASSSSS
B17: il2ra_site2_2erj_normal_mot_HHH_b1_07741_000000192_0001_1_20_H_._9b1ece5d1ebc94355a99c96473898622_0001_1_af2_0001_0000500004_0000001_0 (protein)
chain: DDEEFLEEAARENPETFIKYAKRLAENAGNPELLELVEKLEEEVKKGEIPPEEAAELVVRVFREI
B18: il2ra_site1_1z92_sap_21_mot_3afbd42359c492d9a5ba12d7e5b15de5_0001_000000167_0001_17_33_H_._HHH_b1_04942_0001_0000300013_0000001_0_0001_af2pred_0001_af2pred_1_sw … (protein)
chain: SSSSDEEEELEEIVEEIVEEFGLSEEEEELLRRDAKQALKRGFSLRSIERILRHAAERDLSSSSS
B19: il2ra_site2_2erj_normal_mot_HHH_b1_04777_000000131_0001_1_19_H_._HHH_b2_05509_0001_0000200021_0000001_0 (protein)
chain: SSSSSDELEEFVEELIKEFNLSELAKNYLERWARISKEKGQSEEEIKKALEQAAEADLRSSSSSS

Some of the results follow. Where only a bound is given, the exact number is not on record here.

The test addresses il2ra, P01589. Description: yeast display titration.
As to B1, the “apparent Kd” value was “inactive: no binding seen”. As to B2, the “apparent Kd” value was “inactive: no binding seen”.

As for B3, the apparent Kd is inactive: > 528 nM. The value for B4 was “inactive: no binding seen”; that for B5 was “inactive: no binding seen”; that for B6 was “inactive: no binding seen”. The value for B7 was “inactive: no binding seen”. The result for B8 reads “inactive: no binding seen”; that for B9, “inactive: no binding seen”; that for B10, “inactive: no binding seen”. For B11, the “apparent Kd” value is “inactive: no binding seen”. The value for B12 was inactive: > 86.3 nM. The value for B13 was “inactive: no binding seen”; that for B14 was “inactive: no binding seen”; that for B15 was “inactive: no binding seen”. The result for B16 reads “inactive: no binding seen”; that for B17, “inactive: no binding seen”. For B18, the “apparent Kd” value is “inactive: no binding seen”. The value for B19 was “inactive: no binding seen”.
